No constants are given. Whether binding was seen depends on the method and setting. In cells and extracts the contact can be indirect. A yes stands for co-enrichment or nearness to the bait. Other partners may have been found. Sequences can lack the tags named with a protein.

Sequences of proteins named here, by UniProt entry; tags and fusion partners are left off. A change or cut given only in a name is not applied to a line headed by its entry.
UniProt P38159: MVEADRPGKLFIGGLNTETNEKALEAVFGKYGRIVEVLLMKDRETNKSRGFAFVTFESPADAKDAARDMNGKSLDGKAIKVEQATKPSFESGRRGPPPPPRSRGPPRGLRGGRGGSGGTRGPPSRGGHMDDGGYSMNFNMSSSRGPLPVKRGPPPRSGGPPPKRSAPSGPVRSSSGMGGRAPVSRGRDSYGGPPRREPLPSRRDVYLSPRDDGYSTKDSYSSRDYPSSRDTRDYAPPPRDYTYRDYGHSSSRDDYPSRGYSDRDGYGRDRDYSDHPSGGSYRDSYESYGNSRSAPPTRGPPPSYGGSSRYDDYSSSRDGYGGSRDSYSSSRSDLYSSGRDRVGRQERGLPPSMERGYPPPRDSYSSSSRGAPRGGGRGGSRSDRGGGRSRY
UniProt P31943: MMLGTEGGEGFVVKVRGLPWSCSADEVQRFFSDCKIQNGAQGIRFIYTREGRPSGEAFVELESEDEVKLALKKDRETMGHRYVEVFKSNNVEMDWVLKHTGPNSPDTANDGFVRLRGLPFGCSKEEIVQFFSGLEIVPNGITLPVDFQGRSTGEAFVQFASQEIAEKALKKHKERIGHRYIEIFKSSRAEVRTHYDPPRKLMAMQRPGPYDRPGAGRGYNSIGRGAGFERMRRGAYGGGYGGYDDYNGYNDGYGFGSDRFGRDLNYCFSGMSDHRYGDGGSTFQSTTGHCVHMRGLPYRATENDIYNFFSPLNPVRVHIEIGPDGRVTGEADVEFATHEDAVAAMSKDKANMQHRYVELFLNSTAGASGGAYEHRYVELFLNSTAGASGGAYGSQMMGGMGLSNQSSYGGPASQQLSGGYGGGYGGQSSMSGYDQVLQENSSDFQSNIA
UniProt P07355: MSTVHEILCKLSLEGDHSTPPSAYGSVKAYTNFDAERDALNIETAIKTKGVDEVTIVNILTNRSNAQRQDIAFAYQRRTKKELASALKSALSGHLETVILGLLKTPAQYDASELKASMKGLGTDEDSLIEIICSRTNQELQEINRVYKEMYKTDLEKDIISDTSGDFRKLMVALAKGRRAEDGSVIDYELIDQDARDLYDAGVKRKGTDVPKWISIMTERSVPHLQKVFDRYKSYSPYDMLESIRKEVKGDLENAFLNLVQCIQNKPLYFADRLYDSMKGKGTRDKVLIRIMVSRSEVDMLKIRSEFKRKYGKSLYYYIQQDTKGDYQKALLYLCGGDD
UniProt Q9NYF8: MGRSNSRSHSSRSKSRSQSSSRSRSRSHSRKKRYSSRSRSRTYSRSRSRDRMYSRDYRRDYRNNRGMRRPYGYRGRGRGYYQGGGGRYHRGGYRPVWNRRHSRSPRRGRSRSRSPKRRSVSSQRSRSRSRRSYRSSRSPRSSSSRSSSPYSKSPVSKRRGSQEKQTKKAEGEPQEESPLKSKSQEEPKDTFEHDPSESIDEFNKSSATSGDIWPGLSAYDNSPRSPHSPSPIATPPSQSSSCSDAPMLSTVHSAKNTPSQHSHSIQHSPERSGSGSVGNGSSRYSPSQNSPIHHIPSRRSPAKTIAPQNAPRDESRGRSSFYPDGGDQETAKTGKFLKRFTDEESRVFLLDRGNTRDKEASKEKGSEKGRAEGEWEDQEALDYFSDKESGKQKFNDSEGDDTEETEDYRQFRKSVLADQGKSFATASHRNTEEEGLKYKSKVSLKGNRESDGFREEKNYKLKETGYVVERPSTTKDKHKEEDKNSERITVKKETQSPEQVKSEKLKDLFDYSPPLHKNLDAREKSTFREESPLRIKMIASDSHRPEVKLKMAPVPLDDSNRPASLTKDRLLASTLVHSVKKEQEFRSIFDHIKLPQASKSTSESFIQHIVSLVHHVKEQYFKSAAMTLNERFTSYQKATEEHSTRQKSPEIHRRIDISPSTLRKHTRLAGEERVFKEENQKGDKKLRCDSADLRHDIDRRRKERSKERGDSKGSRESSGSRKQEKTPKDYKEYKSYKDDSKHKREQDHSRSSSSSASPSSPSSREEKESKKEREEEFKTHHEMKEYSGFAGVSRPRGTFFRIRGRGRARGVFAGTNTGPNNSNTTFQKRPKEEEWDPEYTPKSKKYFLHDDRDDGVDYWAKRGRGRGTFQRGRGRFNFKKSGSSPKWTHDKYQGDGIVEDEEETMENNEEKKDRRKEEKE
UniProt Q07955: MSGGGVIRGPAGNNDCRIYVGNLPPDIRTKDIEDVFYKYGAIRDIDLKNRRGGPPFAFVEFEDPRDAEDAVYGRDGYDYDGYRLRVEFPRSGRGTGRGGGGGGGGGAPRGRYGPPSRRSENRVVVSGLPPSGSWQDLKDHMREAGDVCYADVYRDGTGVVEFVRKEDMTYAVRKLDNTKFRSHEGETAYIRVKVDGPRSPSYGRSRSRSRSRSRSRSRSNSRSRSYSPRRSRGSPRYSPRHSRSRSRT
UniProt P16403: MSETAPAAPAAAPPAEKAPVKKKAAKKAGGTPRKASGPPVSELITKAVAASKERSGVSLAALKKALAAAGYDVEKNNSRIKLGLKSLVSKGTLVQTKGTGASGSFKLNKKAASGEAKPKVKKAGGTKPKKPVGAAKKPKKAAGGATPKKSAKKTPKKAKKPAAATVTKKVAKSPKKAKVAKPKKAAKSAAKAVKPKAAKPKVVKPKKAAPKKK
UniProt P67809: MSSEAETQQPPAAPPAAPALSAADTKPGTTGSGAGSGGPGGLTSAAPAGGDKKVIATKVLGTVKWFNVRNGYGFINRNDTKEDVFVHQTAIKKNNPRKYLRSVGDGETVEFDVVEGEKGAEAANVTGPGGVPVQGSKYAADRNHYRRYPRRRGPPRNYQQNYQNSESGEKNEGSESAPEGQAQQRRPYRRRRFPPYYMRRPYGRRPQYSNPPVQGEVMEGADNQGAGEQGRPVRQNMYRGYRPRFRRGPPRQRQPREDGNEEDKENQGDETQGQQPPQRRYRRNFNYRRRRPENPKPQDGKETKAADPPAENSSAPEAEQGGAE
UniProt P62140: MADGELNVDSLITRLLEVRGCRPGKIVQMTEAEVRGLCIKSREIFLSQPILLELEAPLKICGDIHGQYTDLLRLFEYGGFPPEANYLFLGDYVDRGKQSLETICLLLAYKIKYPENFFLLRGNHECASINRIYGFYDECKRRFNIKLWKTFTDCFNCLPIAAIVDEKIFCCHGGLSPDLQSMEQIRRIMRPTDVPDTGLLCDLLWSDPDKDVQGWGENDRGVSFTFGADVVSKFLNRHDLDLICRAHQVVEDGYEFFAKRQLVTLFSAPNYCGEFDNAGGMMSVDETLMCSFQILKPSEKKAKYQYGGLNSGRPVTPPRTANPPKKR

Sequences and labels used below:
B1: Thyroid-hormone-receptor-associated protein 3 (protein, UniProt Q9Y2W1 1-955)
chain: MSKTNKSKSGSRSSRSRSASRSRSRSFSKSRSRSRSLSRSRKRRLSSRSRSRSYSPAHNRERNHPRVYQNRDFRGHNRGYRRPYYFRGRNRGFYPWGQYNRGGYGNYRSNWQNYRQAYSPRRGRSRSRSPKRRSPSPRSRSHSRNSDKSSSDRSRRSSSSRSSSNHSRVESSKRKSAKEKKSSSKDSRPSQAAGDNQGDEAKEQTFSGGTSQDTKASESSKPWPDATYGTGSASRASAVSELSPRERSPALKSPLQSVVVRRRSPRPSPVPKPSPPLSSTSQMGSTLPSGAGYQSGTHQGQFDHGSGSLSPSKKSPVGKSPPSTGSTYGSSQKEESAASGGAAYTKRYLEEQKTENGKDKEQKQTNTDKEKIKEKGSFSDTGLGDGKMKSDSFAPKTDSEKPFRGSQSPKRYKLRDDFEKKMADFHKEEMDDQDKDKAKGRKESEFDDEPKFMSKVIGANKNQEEEKSGKWEGLVYAPPGKEKQRKTEELEEESFPERSKKEDRGKRSEGGHRGFVPEKNFRVTAYKAVQEKSSSPPPRKTSESRDKLGAKGDFPTGKSSFSITREAQVNVRMDSFDEDLARPSGLLAQERKLCRDLVHSNKKEQEFRSIFQHIQSAQSQRSPSELFAQHIVTIVHHVKEHHFGSSGMTLHERFTKYLKRGTEQEAAKNKKSPEIHRRIDISPSTFRKHGLAHDEMKSPREPGYKAEGKYKDDPVDLRLDIERRKKHKERDLKRGKSRESVDSRDSSHSRERSAEKTEKTHKGSKKQKKHRRARDRSRSSSSSSQSSHSYKAEEYTEETEEREESTTGFDKSRLGTKDFVGPSERGGGRARGTFQFRARGRGWGRGNYSGNNNNNSNNDFQKRNREEEWDPEYTPKSKKYYLHDDREGEGSDKWVSRGRGRGAFPRGRGRFMFRKSSTSPKWAHDKFSGEEGEIEDDESGTENREEKDNIQPTTE
B2: Condensin-2 complex subunit H2 (protein, UniProt Q6IBW4 1-605)
chain: MEDVEARFAHLLQPIRDLTKNWEVDVAAQLGEYLEELDQICISFDEGKTTMNFIEAALLIQGSACVYSKKVEYLYSLVYQALDFISGKRRAKQLSSVQEDRANGVASSGVPQEAENEFLSLDDFPDSRTNVDLKNDQTPSEVLIIPLLPMALVAPDEMEKNNNPLYSRQGEVLASRKDFRMNTCVPHPRGAFMLEPEGMSPMEPAGVSPMPGTQKDTGRTEEQPMEVSVCRSPVPALGFSQEPGPSPEGPMPLGGGEDEDAEEAVELPEASAPKAALEPKESRSPQQSAALPRRYMLREREGAPEPASCVKETPDPWQSLDPFDSLESKPFKKGRPYSVPPCVEEALGQKRKRKGAAKLQDFHQWYLAAYADHADSRRLRRKGPSFADMEVLYWTHVKEQLETLRKLQRREVAEQWLRPAEEDHLEDSLEDLGAADDFLEPEEYMEPEGADPREAADLDAVPMSLSYEELVRRNVELFIATSQKFVQETELSQRIRDWEDTVQPLLQEQEQHVPFDIHTYGDQLVSRFPQLNEWCPFAELVAGQPAFEVCRSMLASLQLANDYTVEITQQPGLEMAVDTMSLRLLTHQRAHKRFQTYAAPSMAQP

The assay has as its target T1, GST-tagged bacterially expressed TIMAP protein (human) (UniProt Q96T49).
T1 sequence: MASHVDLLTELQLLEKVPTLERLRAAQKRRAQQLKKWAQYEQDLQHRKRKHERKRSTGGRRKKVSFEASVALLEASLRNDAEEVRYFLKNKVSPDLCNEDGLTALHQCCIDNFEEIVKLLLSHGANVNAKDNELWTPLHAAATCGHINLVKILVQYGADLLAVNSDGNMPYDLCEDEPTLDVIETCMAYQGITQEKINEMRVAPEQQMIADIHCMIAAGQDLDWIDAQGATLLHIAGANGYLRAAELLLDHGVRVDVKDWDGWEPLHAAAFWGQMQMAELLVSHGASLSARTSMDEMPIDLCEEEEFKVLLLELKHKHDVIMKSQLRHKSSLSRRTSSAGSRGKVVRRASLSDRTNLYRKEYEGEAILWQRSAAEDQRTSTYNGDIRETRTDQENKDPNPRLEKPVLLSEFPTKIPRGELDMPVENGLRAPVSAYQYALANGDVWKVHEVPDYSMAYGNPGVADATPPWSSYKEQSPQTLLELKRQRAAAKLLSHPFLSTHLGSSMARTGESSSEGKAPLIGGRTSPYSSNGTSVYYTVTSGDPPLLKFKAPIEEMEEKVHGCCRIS
The assay is described as follows: affinity purification with mass spectrometry; GST–TIMAP pull-down from the nuclear fraction of undifferentiated SH-SY5Y cells; bound proteins separated on SDS-PAGE, MS/MS analysis; only the target purified.
“RNA-binding motif protein (from UniProt P38159 1-391)”: the binding entry is “binds”.
For the molecule “Heterogeneous nuclear ribonucleoprotein H (from UniProt P31943 1-449)”, the binding entry is reported as “binds”.
To Annexin A2 (from UniProt P07355 1-339) belongs “binds”; to “Bcl-2-associated transcription factor 1 (from UniProt Q9NYF8 1-920)”, “binds”; to “Serine/arginine-rich splicing factor 1 (from UniProt Q07955 1-248)”, “binds”.
Under “Histone H1.2 (from UniProt P16403 1-213)” stands “binds”; under “Nuclease-sensitive element-binding protein 1 (from UniProt P67809 1-324)”, “binds”; under “protein phosphatase 1 catalytic subunit, δ isoform (PP1cδ) (from UniProt P62140 1-327) (enzyme)”, “binds”.
With B1, the binding result is on record as “binds”.
On to B2, for which the binding result is given as “binds”.

The values are drawn from paper PMC10744335.
